# Measured values from patent US8278048.
# For at least one entry, the source does not settle the construct or the ends of the probe.
# Test system: BfaI restriction endonuclease
# Test: enzyme reaction in vitro
# Details: 5'-thiol, 3'-biotin on SEQ:1; 37 C, 2 h, hybrid immobilised on streptavidin plate; HRP release depends on target concentration (detectable about 1 nM) and on BfaI amount; enzyme source form not stated; purified recombinant protein; label: 5'-thiol-HRP and 3'-biotin on SEQ:1
sequence,measurement,value
GGTAGTGCGAAATGCCATTGCTAGTTGTTT / AAACAACTAGCAATGGCATTT [HRP-probe:target hybrid],activity on this sequence,active
